# Data from patent publication US20080108681A1 (Access Business Group International LLC, priority 2006, published 2008).
# Experiments:
# [1] = test system: Hyaluronic acid synthesis; conditions: allantoin at 100 μg/ml
# [2] = stated as known; cited from earlier work
compound,measurement,setting,value
"NC(=O)NC1NC(=O)NC1=O (centres unmarked) [Allantoin, 2,5-dioxy-4-imidazolidinyl urea]","Hyaluronic acid synthesis, Percent Increase vs. Untreated Control",[1],79.7%
same,absorption through the skin,[2],easily absorbed through the skin
